Results published in patent publication US20120100071A1 (priority 2009, published 2012).

Test: general procedure: peptide synthesis; succinimidyl active esters (EDC/NHS) with DIPEA in DMSO
Conditions: conjugation step

Substance | conjugation yield (run 1) | conjugation yield (run 2)
BP-Pen-AHx-DBI | 64% | 57%
Re-BP-Pen-AHx-DBI | 65% | 38%
